These are yes or no findings as the source states them, for the method shown. In cells and extracts the contact can be indirect. A yes stands for co-enrichment or nearness to the bait. Other partners may have been found. No binding means not detected with the bait.
Target: PSMA8 (testis-specific α4s subunit of the spermatoproteasome) (mouse (endogenous in testis)) (UniProt Q9CWH6)
Assay: affinity purification with mass spectrometry

The chains behind the UniProt entries cited, without tags or fusion partners.
UniProt Q9CWH6: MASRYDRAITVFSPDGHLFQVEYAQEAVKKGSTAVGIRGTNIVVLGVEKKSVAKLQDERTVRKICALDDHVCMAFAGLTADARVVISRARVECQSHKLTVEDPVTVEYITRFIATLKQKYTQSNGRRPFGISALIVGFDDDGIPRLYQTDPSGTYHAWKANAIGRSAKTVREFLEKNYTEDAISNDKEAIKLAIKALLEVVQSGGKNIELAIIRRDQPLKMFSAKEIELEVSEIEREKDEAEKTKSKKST
UniProt Q9JMA1: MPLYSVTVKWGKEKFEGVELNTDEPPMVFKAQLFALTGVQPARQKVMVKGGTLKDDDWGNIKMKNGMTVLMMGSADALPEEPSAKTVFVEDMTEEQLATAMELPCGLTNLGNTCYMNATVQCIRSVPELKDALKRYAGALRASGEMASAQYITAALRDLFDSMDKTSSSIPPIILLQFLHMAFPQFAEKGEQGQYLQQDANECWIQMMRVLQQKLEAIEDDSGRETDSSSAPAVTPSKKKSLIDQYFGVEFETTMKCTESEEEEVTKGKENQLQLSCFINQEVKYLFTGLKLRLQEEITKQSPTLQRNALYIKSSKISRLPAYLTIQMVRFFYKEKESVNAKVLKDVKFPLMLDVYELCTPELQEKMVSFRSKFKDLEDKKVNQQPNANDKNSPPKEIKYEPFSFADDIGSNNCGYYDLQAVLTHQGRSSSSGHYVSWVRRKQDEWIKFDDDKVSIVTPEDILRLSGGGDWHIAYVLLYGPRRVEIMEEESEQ
UniProt Q9QXK2: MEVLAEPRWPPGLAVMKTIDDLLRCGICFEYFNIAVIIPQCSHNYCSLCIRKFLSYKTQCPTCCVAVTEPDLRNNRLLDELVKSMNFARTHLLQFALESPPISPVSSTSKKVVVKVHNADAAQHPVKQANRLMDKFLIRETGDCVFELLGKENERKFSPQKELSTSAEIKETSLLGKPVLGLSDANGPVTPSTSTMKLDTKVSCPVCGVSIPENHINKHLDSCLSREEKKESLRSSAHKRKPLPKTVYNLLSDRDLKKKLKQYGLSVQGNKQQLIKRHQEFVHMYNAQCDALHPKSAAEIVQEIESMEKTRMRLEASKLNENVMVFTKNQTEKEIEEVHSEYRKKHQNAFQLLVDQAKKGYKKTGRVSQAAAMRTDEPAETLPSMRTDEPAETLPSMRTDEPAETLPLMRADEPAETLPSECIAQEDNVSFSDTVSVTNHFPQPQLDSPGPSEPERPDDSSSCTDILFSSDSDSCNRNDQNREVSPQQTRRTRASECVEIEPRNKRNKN
UniProt P17156: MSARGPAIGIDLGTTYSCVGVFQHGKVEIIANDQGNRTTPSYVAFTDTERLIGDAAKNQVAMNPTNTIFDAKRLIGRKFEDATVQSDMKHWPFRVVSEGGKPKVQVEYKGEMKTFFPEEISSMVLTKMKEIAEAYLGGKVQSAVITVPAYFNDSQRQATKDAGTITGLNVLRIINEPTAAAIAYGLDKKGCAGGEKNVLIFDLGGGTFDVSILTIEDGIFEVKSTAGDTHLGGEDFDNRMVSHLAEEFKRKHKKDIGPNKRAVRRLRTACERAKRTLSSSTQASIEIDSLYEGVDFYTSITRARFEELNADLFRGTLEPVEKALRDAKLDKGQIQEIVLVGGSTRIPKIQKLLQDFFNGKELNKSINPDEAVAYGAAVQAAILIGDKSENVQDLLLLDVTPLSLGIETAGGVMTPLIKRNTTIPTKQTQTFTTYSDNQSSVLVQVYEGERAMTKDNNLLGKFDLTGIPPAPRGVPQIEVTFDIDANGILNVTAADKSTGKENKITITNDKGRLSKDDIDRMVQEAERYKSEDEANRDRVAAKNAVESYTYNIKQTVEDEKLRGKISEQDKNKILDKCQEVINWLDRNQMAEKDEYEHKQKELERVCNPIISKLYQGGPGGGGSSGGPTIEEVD
UniProt P61407: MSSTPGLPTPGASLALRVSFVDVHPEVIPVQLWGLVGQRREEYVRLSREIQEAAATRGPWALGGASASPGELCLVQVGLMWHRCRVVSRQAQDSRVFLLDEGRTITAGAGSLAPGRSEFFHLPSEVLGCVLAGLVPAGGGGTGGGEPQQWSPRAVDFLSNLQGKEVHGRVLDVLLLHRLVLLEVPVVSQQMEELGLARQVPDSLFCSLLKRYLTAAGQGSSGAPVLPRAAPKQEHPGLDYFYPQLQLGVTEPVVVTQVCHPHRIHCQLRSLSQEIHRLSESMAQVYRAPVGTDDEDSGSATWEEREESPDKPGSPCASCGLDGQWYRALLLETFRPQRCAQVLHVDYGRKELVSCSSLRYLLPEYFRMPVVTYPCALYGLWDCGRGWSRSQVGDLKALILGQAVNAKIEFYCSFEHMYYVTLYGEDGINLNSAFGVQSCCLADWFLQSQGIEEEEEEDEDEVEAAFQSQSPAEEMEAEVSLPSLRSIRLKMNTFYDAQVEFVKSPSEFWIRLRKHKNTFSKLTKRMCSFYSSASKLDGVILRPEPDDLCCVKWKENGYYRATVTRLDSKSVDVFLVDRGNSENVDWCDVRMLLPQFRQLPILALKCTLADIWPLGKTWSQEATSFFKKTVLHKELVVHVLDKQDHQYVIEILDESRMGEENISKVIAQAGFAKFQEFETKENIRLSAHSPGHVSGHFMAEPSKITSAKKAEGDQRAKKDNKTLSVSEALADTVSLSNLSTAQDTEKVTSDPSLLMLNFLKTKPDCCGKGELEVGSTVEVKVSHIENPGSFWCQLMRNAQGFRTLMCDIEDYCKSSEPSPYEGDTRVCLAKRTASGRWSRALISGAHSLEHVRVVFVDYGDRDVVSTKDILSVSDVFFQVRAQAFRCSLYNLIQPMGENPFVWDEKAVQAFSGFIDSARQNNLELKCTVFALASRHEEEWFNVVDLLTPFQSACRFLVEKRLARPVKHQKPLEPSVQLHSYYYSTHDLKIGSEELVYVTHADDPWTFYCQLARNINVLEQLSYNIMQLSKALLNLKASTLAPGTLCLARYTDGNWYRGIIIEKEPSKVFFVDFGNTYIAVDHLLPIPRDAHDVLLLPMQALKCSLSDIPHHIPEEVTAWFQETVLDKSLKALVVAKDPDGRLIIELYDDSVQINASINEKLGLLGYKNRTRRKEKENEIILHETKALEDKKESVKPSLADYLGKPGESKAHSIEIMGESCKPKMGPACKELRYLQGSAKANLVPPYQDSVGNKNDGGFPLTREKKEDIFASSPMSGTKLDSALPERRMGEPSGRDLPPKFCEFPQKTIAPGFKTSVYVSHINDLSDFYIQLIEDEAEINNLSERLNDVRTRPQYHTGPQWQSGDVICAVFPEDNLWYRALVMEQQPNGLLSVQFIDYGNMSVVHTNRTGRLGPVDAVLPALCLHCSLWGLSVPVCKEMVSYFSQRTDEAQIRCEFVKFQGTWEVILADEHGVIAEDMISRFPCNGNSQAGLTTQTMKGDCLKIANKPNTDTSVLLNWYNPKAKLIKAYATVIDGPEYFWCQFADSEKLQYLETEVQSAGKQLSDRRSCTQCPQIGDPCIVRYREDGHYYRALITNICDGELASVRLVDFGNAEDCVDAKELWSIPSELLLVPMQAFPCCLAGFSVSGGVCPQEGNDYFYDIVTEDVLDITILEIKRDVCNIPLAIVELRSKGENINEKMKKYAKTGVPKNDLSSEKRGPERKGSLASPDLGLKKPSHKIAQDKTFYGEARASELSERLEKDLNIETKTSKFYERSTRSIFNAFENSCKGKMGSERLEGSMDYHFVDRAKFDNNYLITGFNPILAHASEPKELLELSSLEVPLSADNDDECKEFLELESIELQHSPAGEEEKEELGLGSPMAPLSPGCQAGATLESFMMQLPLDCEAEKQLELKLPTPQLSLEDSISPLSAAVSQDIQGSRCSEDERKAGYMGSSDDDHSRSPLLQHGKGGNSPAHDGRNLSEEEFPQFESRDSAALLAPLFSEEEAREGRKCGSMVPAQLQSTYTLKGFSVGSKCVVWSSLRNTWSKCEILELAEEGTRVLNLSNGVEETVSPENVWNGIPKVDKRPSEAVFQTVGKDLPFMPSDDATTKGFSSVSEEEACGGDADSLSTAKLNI
UniProt P97372: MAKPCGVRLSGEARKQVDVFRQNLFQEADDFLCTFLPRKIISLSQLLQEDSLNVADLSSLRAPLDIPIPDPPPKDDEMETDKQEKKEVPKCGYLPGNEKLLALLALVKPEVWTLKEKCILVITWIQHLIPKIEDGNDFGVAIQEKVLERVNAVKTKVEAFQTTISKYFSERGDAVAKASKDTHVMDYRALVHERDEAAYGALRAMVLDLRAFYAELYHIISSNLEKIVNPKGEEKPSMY
UniProt P11440: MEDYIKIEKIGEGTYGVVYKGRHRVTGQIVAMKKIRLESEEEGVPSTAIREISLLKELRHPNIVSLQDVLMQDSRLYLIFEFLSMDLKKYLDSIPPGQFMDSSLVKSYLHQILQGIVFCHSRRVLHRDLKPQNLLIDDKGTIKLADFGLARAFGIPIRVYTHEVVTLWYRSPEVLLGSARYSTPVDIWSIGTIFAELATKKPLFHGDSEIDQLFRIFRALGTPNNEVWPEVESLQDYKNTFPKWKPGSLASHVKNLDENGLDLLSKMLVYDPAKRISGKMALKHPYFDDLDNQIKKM
UniProt G5E870: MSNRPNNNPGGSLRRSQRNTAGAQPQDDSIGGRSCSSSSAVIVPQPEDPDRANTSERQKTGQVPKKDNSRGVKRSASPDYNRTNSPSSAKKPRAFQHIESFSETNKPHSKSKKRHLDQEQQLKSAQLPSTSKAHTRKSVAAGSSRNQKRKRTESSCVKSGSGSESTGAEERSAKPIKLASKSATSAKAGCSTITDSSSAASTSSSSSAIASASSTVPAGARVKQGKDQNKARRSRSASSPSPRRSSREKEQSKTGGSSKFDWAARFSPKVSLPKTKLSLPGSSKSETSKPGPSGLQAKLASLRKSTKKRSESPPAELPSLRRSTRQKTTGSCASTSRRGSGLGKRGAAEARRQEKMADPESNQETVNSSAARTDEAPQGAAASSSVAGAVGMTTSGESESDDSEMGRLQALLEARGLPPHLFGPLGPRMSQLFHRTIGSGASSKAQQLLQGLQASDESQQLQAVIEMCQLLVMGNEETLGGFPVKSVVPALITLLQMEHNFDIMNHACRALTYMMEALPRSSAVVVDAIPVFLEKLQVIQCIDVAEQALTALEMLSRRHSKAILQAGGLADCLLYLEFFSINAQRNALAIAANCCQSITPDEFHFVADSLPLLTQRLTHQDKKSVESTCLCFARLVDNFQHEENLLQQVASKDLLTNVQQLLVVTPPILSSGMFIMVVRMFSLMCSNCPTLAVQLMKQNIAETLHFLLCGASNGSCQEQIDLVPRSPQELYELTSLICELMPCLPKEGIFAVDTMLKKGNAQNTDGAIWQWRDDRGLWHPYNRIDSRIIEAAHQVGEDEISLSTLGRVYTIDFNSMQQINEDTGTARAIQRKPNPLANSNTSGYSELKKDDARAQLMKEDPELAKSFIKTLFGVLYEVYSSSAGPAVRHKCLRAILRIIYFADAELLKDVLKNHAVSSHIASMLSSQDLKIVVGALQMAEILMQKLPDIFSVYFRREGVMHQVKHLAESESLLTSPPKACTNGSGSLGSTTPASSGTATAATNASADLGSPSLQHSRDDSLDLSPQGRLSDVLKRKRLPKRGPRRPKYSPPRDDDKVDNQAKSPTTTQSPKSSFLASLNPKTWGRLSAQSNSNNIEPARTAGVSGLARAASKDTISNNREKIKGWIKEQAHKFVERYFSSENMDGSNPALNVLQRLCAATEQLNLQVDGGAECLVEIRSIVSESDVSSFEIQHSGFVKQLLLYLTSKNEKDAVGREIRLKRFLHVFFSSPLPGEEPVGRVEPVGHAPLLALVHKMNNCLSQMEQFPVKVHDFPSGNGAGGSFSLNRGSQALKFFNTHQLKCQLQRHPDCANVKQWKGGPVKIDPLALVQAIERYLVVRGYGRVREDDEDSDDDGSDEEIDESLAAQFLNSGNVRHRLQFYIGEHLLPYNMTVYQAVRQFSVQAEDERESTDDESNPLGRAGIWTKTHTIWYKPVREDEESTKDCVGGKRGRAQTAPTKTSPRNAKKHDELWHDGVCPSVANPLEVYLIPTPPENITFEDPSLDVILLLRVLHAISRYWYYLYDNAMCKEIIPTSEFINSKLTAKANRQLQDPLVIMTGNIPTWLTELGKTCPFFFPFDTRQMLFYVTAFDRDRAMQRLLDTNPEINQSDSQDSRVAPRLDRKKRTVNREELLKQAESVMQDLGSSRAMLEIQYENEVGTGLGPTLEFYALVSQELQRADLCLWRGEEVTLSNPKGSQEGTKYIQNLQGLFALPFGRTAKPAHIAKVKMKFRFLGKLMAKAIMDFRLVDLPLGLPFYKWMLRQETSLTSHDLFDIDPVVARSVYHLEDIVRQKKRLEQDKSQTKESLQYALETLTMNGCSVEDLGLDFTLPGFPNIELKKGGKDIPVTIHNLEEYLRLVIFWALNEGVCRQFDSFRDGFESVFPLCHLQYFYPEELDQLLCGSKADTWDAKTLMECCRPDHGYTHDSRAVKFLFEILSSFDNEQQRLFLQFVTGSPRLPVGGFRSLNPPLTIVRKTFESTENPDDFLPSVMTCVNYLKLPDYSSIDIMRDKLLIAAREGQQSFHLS

binding	Molecule
binds	USP14 (from UniProt Q9JMA1 1-493) (enzyme)
binds	RAD18 (from UniProt Q9QXK2 1-509) (enzyme)
binds	HSP70a2 (from UniProt P17156 1-633)
binds	TDRD6 (from UniProt P61407 1-2134)
no binding	PA28β (PSME2) (from UniProt P97372 1-239)
binds	CCT6b (from UniProt Q61390 1-531)
binds	USP5 (from UniProt P56399 1-858) (enzyme)
binds	USP34 (from UniProt Q6ZQ93 1-3582) (enzyme)
binds	RNF17 (from UniProt Q99MV7 1-1640)
binds	USP9X (from UniProt P70398 1-2559) (enzyme)
binds	NEDD4 (from UniProt P46935 1-887) (enzyme)
binds	CDK1 (cyclin dependent kinase 1) (endogenous) (from UniProt P11440 1-297) (enzyme)
binds	SMC4 (from UniProt Q8CG47 1-1286)
binds	TRIP12 (from UniProt G5E870 1-2025) (enzyme)
binds	CCT2 (protein, UniProt P80314 1-535) MASLSLAPVNIFKAGADEERAETARLSSFIGAIAIGDLVKSTLGPKGMDKILLSSGRDAALMVTNDGATILKNIGVDNPAAKVLVDMSRVQDDEVGDGTTSVTVLAAELLREAESLIAKKIHPQTIISGWREATKAAREALLSSAVDHGSDEARFWQDLMNIAGTTLSSKLLTHHKDHFTKLAVEAVLRLKGSGNLEAIHVIKKLGGSLADSYLDEGFLLDKKIGVNQPKRIENAKILIANTGMDTDKIKIFGSRVRVDSTAKVAEIEHAEKEKMKEKVERILKHGINCFINRQLIYNYPEQLFGAAGVMAIEHADFAGVERLALVTGGEIASTFDHPELVKLGSCKLIEEVMIGEDKLIHFSGVALGEACTIVLRGATQQILDEAERSLHDALCVLAQTVKDPRTVYGGGCSEMLMAHAVTQLANRTPGKEAVAMESFAKALRMLPTIIADNAGYDSADLVAQLRAAHSEGHITAGLDMKEGTIGDMAVLGITESFQVKRQVLLSAAEAAEVILRVDNIIKAAPRKRVPDHHPC
binds	USP47 (enzyme, UniProt Q8BY87 1-1376) MVPGEENQLVPKEDVFWRCRQNIFDEMKKKFLQIENAAEEPRVLCIIQDTTNSKTVSERITLNLPASTPVRKLFEDVANKVGYINGTFDLTRENGVTTADMAPLDHTSDKSLLDANFEPGKKNFLHLTDKDGEPPQMLLEDSNNVDDSVHDRFIGPLPREGSVASTNDYVSQNYSYSSILNKSETGYVGLVNQAMTCYLNSLLQTLFMTPEFRNALYKWEFEDSEEDPVTSIPYQLQRLFVLLQTSKKRAIETTDVTRSFGWDSSEAWQQHDVQELCRVMFDALEQKWKQTEQADLINELYQGKLKDYVRCLECGYEGWRIDTYLDIPLVIRPYGSSQAFASVEEALHAFIQPEILDGPNQYFCERCKKKCDARKGLRFLHFPYLLTLQLKRFDFDYTTMHRIKLNDRMSFPEELDMSTFIDIEDEKSPQTESCTDSGAENEGSCHSDQMSNDFSTDDAVDEGICLESSSGSEKISKPGLEKNSLMYELFSVMVHSGSAAGGHYYACIKSFSDDQWYSFNDQHVSRITQEDIKKTHGGSSGSRGYYSSAFASSTNAYMLIYRLKDPTRNAKFLEVDEYPEHIKNLVQKERELEEQEKRQREIERNTCKIKLFCLHPVKQVMMENKLEVHKDKTLKEAVEMAYKMMDLEDVIPLDCCRLVKYDEFHDYLERSYEGEEDTPMGLLLGGVKSTYMFDLLLETRKPDQIFQSYKPGEVMVKVHVVDLKAETVAAPVTVRAYLNQTVTEFKQLISKATHLPADSMRIVLERCYNDLRLLSMPSKTLKAEGFFRSNKVFVESSETVDHQAAFTDSHLWKLLDRHANTIRLFVLLPEQSPGSYSKRTAYQKAGGDSGNVDDDCERVKGPAGNLKSVDAILEESTEKLKSLSLQQQQQDGDNGDSSKSTETSDFENIESPLNERGSSTSVDNRELEQHIQTSDPENFQSEERSDSDVNNDRSTSSVDSDILSSSHSSDTLCNADSAQIPLANGLDSHSITSSRRTKANEGKKETWDTAEEDSGTDSEYDESGKSRGDMQYMYFKADPYTADEGSGEGHKWLMVHVDKRITLAAFKQHLEPFVGVLSSHFKVFRVYTSNQEFETVRLNETLSSFSDDNKITIRLGRALKKGEYRVKVCQLLVNEQEPCKFLLDAVFAKGMTVRQSKEELIPQLREQCGLDLSIDRFRLRKKTWKNPGTVFLDYHIYEEDINISSNWEVFLEVLDGVEKMKSMSQLAILTRRWRPAEMKLDPFQELVLESNSVDELREKLSEISGIPLEDIEFAKGRGTFPCDISVLDIHQDLDWNPKVSTLNVWPLYICDDGAVIFYRDRTEEVMELTDEQRNELMKKESSRLQKTGHRVTYSPRKEKALKIYLDGAPNKDVAQD
binds	SYCP1 (endogenous) (protein, UniProt Q62209 1-993) MEKQKPFTLFVPPRLSSSQVSAVKPQTAGGDSNYFKTANKCTEGDFGVPFTMSSRENIDKDPAFQKLSILPMLEQVANSGSCHYQEGVNDSDFENSEPMSRLYSKLYKEAEKIKKWKVSIESELKQKENKLQENRKIIEAQRKAIQELQFENEKVSLKLEEEIQENKDLIKENNATIHWCNLLKETCARSAEKTNKYEYEREETRQVYVDLNSNIEKMILAFEELRVQAENARLEMHFKLKEDHEKIQHLEEEYQKEVNNKENQVSELLIQSAEKENKMKDLTFLLEESRDKANQLEEKTKLQDENLKELSEKKDHLTSELEDIKMSMQRSMSTQKALEEDLQIATKTISQLTEVKEAQMEELNKAKTTHSFVVTELKATTCTLEELLRTEQQRLEKNEDQLKLITVELQKKSNELEEMTKFKNNKEVELEELKNILAEDQKLLDEKKQVEKLAEELQEKEQELTFLLETREKEVHDLQEQVTVTKTSEQHYLKQVEEMKTELEKEKLKNTELTASCDMLLLENKKFVQEASDMALELKKHQEDIINCKKQEERLLKQIENLEEKEMHLRDELESVRKEFIQQGDEVKCKLDKSEENARSIECEVLKKEKQMKILESKCNNLKKQVENKSKNIEELHQENKTLKKKSSAEIKQLNAYEIKVSKLELELESTKQRFEEMTNNYQKEIENKKISEGKLLGEVEKAKATVDEAVKLQKEIDLRCQHKIAEMVALMEKHKHQYDKIVEERDSELGLYKNREQEQSSAKIALETELSNIRNELVSLKKQLEIEKEEKEKLKMAKENTAILKDKKDKKIQASLLESPEATSWKFDSKTTPSQNISRLSSSMDSGKSKDNRDNLRASAKSILPTTVTKEYTVKTPTKKSIYQRENKYIPTGGSNKKRKTAFEFDVNSDSSETADLLSLVSEEDVSNRLYDNNPPDSHLLVKTPKQTPLSLSTPASFMKFGSLKKMREDRWTTIAKIDRKRRLKEAEKLFS
binds	TRIP13 (endogenous) (protein, UniProt Q3UA06 1-432) MDEAVGDLKQALPCVAESPAVHVEVLQRSGSTAKKEDIKSSVYRLLNRHNIVFGDYVWTEFDDPFLSRNVQSVSIVDTELKAKDPQPIDLSACTIALHIFQLNEEGPSSENLDEETENIIAASHWVLPAAEFHGLWDSLVYDVEVKSHLLDYVMTTVLFSDKNVDSNLITWNRVVLLHGPPGTGKTSLCKALAQKLTIRLSSRYRYGQLIEINSHSLFSKWFSESGKLVTKMFQKIQDLIDDKEALVFVLIDEVESLTAARNACRAGAEPSDAIRVVNAVLTQIDQIKRHSNVVILTTSNITEKIDVAFVDRADIKQYIGPPSAAAIFKIYLSCLEELMKCQIIYPRQQLLTLRELEMIGFIENNVSKLSLLLSEISRKSEGLSGRVLRKLPFLAHALYIQAPSVTIEGFLQALSLAVDKQFEEKKKLSAYV
binds	SMC6 (protein, UniProt Q924W5 1-1097) MAKRKEENFCSPENAKRPRQEELEDFDKDGDEDECTISFTNGTSTLTAAEVGIIESIQLRNFMCHSMLGPFKFGSNVNFVVGNNGSGKSAVLTALIVGLGGKAVATNRGSSLKGFVKAGQNSADISITLRNRGDDAFRANVYGDSIVVQQHISVDGSRSYKLKSEKGTVVSTRKEELIAILDHFNIQVDNPVSVLTQEMSKQFLQSKNEGDKYKFFMKATQLEQMKEDYSYIMETKERTKEQINQGEERLTELKRQCLEKEERFQNIAGLSTMKTNLEYLKHEMAWAVVNEIEKQLNAIRDNIKIGEERAAKLDRKMEEQQVRLNDAEKKYKDIQDKLEKISEETNARAPECMALKTDVIARTRAFNDAEVLYNRSLNEYKALKKDGEQLCKRIEELKKSTDQSLEPERLERQKRICWLKEKVKALQDQEHTVNQEAEQFEQAIEKDKQEHGRVRKEDIEVRHALNYNQRQLKELKDSKTDRLKRFGPHVPALLEAIDDAYRRRQFTHKPIGPLGACIHLRDPELALAIESCLKGLLQAYCCHNHADERVLQSLMKKFYPPGTSRPQIIVSEFRDEVYDVRLRAAYHPEFPTVLTALEIDNAVVANSLIDMRSIETVLLIKNNSVARAVMQSQKPPKNCREAFTADGDQVFAGRYYSSESTRPKFLSRDVDSEISDLETEIENKKGHIITLQQRLSALEKDIKRNEELLKRCQLHYKEIKMKIRKNISEIRELENIEEHQSVDIATLEDEAEENKIKMQMVEKNMEQQKENMENLKSLKIEAENKYDTIKLKINQLSELADPLKDELNLADSEVDSQKRGKQHYEDKQKEHLDTLNKKRRELDMKEKELQEKMSQARQICPERIEVKKSASILDKEINRLRQKIQAEHASHGDREEIMKQYQEARETYLDLDNKVRTLRRFIKLLEEIMTHRYKTYQQFRRCLTLRCKLYFDNLLSQRAYCGKMNFDHKNETLSITVQPGEGNKASFNDMRALSGGERSFSTVCFILSLWSIAESPFRCLDEFDVYMDMVNRRIAMDMILKMADSQRFRQFILLTPQSMSSLPSSKLIRILRMSDPERGQTTLPFRPVTQEEDDSAS
binds	TRIM36 (enzyme, UniProt Q80WG7 1-729) MSESEEISEFGYIMELLAKGKVTIKNIEKELICPACKELFTHPLILPCQHSVCHKCVKELLLSLDDSFNDVASDSSNQSSPRLRLTSPSMDKIDKINRPGWKRNSLTPRPTTFPCPGCEHDVDLGERGVSGLFRNFTLETIVERYRQAARAATAIMCDLCKPPPQESTKSCMDCSASYCNECFKIYHPWGTVKAQHEYVGPTTNFRPKVLMCPEHETERINMYCELCRRPVCHLCKLGGNHSNHRVTTMSSAYKTLKEKLSKDIDFLIGKESQVKSQISELNLLMKETECNGERAKEEALAHFEKLFEILEDRKSSVLKAIDASKKLRLDKFHTQMEEYQGLLENNGLVGYAQEVLKETDQSCFVQTAKQLHLRIQKATESLKSFRPAAQASFEDYVVNISKQTEVLGELSFFSSGIDIPEINEEQSKVYNNALIDWHHPEKDKADSYVLEYRKINRDEEMISWNEIEVHGTSKVVSNLESNSPYAFRVRAYRGSICSPCSRELILHTPPAPVFSFLFDEKCGYNTEHLLLNLKRDRVESRAGFNVLLAAERIQVGHYTSLDYIIGDVGVTKGKHFWACRVEPYSYLVKVGVASSDKLQEWLRSPRDAASPRYEQDSGHDSGSEDACFDSSQPFTLVTIGMKKFFIPKSPTSSNEPENRVLPMPTSIGIFLDCDKGKVSFYDMDHMKCLYERQVDCSHTMYPAFALMGSGGIQLEEAITAKYLEYEEDV

From article doi:10.1101/384354
